Assay results from PMC4365668, “The zinc finger proteins ZNF644 and WIZ regulate the G9a/GLP complex for gene repression”.
Where two headings read alike, the source gives them in different places. No constants are given. Whether binding was seen depends on the method and setting. Binding seen in cells or lysates may run through a third protein. For some assays here: Binding calls can cover weak binding; strength is not graded here. For some assays here: Tags and fused reporters may be left off the sequences shown.

Chains of the proteins cited; added tags and fusions are not shown. Lines headed by an entry give the natural chain unless they say otherwise; changes in a name come on top.
UniProt Q9H9B1: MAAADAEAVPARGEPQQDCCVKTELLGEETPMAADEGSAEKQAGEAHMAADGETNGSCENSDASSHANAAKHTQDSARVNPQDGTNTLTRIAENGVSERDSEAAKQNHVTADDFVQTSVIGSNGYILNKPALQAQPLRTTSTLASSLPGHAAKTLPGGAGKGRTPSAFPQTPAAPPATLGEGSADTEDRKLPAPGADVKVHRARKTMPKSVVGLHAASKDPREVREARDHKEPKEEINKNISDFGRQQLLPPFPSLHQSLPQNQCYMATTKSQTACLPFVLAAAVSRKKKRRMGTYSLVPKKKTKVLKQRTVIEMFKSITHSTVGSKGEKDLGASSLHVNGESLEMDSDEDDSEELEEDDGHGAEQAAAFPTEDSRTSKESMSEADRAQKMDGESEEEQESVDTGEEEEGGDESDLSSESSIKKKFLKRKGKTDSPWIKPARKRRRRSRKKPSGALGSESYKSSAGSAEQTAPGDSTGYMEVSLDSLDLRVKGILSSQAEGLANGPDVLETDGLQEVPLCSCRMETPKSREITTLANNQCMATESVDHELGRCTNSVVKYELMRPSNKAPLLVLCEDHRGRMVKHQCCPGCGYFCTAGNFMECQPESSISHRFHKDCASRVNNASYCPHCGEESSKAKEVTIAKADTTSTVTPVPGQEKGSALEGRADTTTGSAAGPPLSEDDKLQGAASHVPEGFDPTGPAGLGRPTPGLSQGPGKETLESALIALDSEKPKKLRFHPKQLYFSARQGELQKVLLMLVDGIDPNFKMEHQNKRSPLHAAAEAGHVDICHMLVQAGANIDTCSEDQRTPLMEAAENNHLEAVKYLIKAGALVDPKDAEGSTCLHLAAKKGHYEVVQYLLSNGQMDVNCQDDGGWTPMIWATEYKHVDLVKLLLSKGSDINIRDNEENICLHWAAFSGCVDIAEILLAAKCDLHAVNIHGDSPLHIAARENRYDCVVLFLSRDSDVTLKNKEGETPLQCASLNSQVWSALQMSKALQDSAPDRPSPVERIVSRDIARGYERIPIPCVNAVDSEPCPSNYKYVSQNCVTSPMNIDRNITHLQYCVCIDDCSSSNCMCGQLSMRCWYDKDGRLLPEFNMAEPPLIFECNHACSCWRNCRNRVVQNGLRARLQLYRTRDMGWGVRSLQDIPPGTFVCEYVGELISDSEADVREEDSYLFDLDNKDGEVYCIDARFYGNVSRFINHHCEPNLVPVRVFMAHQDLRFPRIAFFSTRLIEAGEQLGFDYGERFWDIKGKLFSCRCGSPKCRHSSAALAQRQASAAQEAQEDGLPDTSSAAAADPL
UniProt O95785: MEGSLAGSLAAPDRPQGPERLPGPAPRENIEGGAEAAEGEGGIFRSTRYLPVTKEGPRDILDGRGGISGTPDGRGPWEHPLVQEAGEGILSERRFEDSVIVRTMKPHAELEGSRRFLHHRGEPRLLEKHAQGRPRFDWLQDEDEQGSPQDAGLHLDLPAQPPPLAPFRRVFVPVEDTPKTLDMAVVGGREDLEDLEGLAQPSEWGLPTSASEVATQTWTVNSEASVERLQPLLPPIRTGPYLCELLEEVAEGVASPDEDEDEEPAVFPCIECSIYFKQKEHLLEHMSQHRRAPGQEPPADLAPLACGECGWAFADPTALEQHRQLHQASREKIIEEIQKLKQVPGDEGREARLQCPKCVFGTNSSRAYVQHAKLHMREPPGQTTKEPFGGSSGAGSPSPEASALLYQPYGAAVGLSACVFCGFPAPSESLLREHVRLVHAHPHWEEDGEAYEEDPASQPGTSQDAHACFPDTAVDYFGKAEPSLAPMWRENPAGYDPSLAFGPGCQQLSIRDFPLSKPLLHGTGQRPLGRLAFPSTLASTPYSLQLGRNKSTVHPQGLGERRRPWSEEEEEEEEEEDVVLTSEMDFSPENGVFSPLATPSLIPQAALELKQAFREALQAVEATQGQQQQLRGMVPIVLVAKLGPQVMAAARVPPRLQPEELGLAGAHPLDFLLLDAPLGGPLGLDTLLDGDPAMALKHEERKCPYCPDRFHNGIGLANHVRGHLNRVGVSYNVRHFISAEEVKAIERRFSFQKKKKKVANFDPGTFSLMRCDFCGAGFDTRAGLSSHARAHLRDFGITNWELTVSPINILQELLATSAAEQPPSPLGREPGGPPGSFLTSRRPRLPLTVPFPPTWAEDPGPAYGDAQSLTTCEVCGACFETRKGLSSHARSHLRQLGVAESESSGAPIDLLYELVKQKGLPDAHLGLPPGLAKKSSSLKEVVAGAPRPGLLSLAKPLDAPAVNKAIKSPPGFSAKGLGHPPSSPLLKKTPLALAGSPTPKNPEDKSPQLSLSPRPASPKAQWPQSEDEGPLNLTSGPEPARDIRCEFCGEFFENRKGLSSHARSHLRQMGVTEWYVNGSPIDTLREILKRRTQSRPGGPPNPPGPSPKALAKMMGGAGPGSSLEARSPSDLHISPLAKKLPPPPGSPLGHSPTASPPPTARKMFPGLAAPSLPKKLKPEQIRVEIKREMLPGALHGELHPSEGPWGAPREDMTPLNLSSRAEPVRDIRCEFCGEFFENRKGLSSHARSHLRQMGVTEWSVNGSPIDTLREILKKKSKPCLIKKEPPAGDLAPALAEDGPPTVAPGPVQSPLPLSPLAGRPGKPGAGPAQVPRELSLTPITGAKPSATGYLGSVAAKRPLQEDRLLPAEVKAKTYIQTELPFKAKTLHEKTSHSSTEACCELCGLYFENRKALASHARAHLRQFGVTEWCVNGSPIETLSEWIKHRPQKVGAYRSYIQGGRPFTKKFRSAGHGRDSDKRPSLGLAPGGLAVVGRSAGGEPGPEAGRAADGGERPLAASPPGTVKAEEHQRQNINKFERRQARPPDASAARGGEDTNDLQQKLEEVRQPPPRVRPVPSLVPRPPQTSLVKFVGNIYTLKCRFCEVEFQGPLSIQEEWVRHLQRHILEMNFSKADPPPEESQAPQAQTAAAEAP

Tests used:
[1] = target: SFB-tagged GLP catalytic domain deletion mutant (UniProt Q9H9B1); assay: pull-down; SFB-tagged protein and its partner expressed in 293T cells; lysates on streptavidin beads, Western blotting
[2] = target: SFB-tagged GLP catalytic domain deletion mutant (UniProt Q9H9B1); assay: as above; remark: listed apart in the source

Molecule	binding [1]	binding [2]
WIZ (partner of SFB-G9a and SFB-GLP in Figure 2C and 2E) (from UniProt O95785 1-1651)	binds	
Myc-tagged ZNF644 (wild type) (protein, UniProt Q9H582 1-1327) MRSFLQQDVNKTKSRLNVLNGLANNMDDLKINTDITGAKEELLDDNNFISDKESGVHKPKDCQTSFQKNNTLTLPEELSKDKSENALSGGQSSLFIHAGAPTVSSENFILPKGAAVNGPVSHSSLTKTSNMNKGSVSLTTGQPVDQPTTESCSTLKVAADLQLSTPQKASQHQVLFLLSDVAHAKNPTHSNKKLPTSASVGCDIQNSVGSNIKSDGTLINQVEVGEDGEDLLVKDDCVNTVTGISSGTDGFRSENDTNWDPQKEFIQFLMTNEETVDKAPPHSKIGLEKKRKRKMDVSKITRYTEDCFSDSNCVPNKSKMQEVDFLEQNEELQAVDSQKYALSKVKPESTDEDLESVDAFQHLIYNPDKCGEESSPVHTSTFLSNTLKKKCEESDSESPATFSTEEPSFYPCTKCNVNFREKKHLHRHMMYHLDGNSHFRHLNVPRPYACRECGRTFRDRNSLLKHMIIHQERRQKLMEEIRELKELQDEGRSARLQCPQCVFGTNCPKTFVQHAKTHEKDKRYYCCEECNFMAVTENELECHRGIAHGAVVKCPMVTSDIAQRKTQKKTFMKDSVVGSSKKSATYICKMCPFTTSAKSVLKKHTEYLHSSSCVDSFGSPLGLDKRKNDILEEPVDSDSTKTLTKQQSTTFPKNSALKQDVKRTFGSTSQSSSFSKIHKRPHRIQKARKSIAQSGVNMCNQNSSPHKNVTIKSSVDQKPKYFHQAAKEKSNAKANSHYLYRHKYENYRMIKKSGESYPVHFKKEEASSLNSLHLFSSSSNSHNNFISDPHKPDAKRPESFKDHRRVAVKRVIKESKKESSVGGEDLDSYPDFLHKMTVVVLQKLNSAEKKDSYETEDESSWDNVELGDYTTQAIEDETYSDINQEHVNLFPLFKSKVEGQEPGENATLSYDQNDGFYFEYYEDTGSNNFLHEIHDPQHLETADASLSKHSSVFHWTDLSLEKKSCPYCPATFETGVGLSNHVRGHLHRAGLSYEARHVVSPEQIATSDKMQHFKRTGTGTPVKRVRKAIEKSETTSEHTCQLCGGWFDTKIGLSNHVRGHLKRLGKTKWDAHKSPICVLNEMMQNEEKYEKILKALNSRRIIPRPFVAQKLASSDDFISQNVIPLEAYRNGLKTEALSVSASEEEGLNFLNEYDETKPELPSGKKNQSLTLIELLKNKRMGEERNSAISPQKIHNQTARKRFVQKCVLPLNEDSPLMYQPQKMDLTMHSALDCKQKKSRSRSGSKKKMLTLPHGADEVYILRCRFCGLVFRGPLSVQEDWIKHLQRHIVNANLPRTGAGMVEVTSLLKKPASITETSFSLLMAEAAS		no binding
